# From the supplement of paper PMC12889115
# This is one part of the list. These are raw signals, not scaled to a control.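 Primary screen: polymyxin B was added at a level permeabilizing Salmonella outer membranes while sparing inner membranes. DMSO wells, both with and without polymyxin B, established maximum growth. Plate-to-plate variation meant each plate was ranked on its own, and the lowest-OD600 compounds were selected as hits.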
# Tested on: Salmonella enterica serovar Typhimurium SL1344
# Assay: bacterial growth OD600 after 18 h with compound and polymyxin B; higher = more bacterial growth (less inhibition)
# Details: 50 µM, Mueller-Hinton broth
compound,measurement,setting,value
COc1ccc(C(CC(=O)NCc2cn3ccsc3n2)c2ccccc2)cc1 (centres undefined),bacterial growth OD600,polymyxin B 1 µg/mL,0.696
COC(=O)CCC(=O)N1CCC(C2CCN(Cc3cccc(F)c3F)CC2)C1 (centres undefined),bacterial growth OD600,polymyxin B 0.75 µg/mL,0.973
Cc1ccc(OC2CCN(C(=O)C3CCC(=O)N(CCN4CCOCC4)C3)CC2)cc1 (centres undefined),bacterial growth OD600,polymyxin B 1 µg/mL,1.17
COCC(=O)Nc1cc(C(=O)N(C)CC2Cc3ccccc3O2)cc2nc(-c3cccnc3)n(C)c12 (centres undefined),bacterial growth OD600,polymyxin B 0.75 µg/mL,0.872
c1ccc(N2CCN(C3CCCN(Cc4cccc5cccnc45)C3)CC2)cc1 (centres undefined),bacterial growth OD600,polymyxin B 0.75 µg/mL,0.785
O=C(CCOc1ccccc1)N1CCCC(Nc2ccc(F)c(F)c2)C1 (centres undefined),bacterial growth OD600,polymyxin B 1 µg/mL,0.012
CC#CC(=O)NCC1(N(C)Cc2ccccc2)Cc2ccccc2C1,bacterial growth OD600,polymyxin B 1 µg/mL,0.728
COC1CCN(C(=O)c2cc(NC(=O)CC3CCCC3)cc3nc(C4CCCO4)n(C)c23)CC1 (centres undefined),bacterial growth OD600,polymyxin B 0.75 µg/mL,0.924
COc1ccccc1CCN1CCCC(CN(C)C(=O)NCc2ccccc2)C1 (centres undefined),bacterial growth OD600,polymyxin B 1 µg/mL,1.06

# Copied from above (two entries):
compound,measurement,setting,value
COC1CCN(C(=O)c2cc(NC(=O)CC3CCCC3)cc3nc(C4CCCO4)n(C)c23)CC1 (centres undefined),bacterial growth OD600,polymyxin B 0.75 µg/mL,0.924
COc1ccccc1CCN1CCCC(CN(C)C(=O)NCc2ccccc2)C1 (centres undefined),bacterial growth OD600,polymyxin B 1 µg/mL,1.06
